Results are given in words; binding and its absence hold for the method and conditions named. In cells and extracts the contact can be indirect. A yes stands for co-enrichment or nearness to the bait. Other partners may have been found. Where a sequence is shown, tags or fusion partners need not be part of it. Each block holds one binder with its values, some of them ahead of it.
Target: T1, Ync13–3FLAG (S. pombe) (UniProt O13683)
T1 sequence: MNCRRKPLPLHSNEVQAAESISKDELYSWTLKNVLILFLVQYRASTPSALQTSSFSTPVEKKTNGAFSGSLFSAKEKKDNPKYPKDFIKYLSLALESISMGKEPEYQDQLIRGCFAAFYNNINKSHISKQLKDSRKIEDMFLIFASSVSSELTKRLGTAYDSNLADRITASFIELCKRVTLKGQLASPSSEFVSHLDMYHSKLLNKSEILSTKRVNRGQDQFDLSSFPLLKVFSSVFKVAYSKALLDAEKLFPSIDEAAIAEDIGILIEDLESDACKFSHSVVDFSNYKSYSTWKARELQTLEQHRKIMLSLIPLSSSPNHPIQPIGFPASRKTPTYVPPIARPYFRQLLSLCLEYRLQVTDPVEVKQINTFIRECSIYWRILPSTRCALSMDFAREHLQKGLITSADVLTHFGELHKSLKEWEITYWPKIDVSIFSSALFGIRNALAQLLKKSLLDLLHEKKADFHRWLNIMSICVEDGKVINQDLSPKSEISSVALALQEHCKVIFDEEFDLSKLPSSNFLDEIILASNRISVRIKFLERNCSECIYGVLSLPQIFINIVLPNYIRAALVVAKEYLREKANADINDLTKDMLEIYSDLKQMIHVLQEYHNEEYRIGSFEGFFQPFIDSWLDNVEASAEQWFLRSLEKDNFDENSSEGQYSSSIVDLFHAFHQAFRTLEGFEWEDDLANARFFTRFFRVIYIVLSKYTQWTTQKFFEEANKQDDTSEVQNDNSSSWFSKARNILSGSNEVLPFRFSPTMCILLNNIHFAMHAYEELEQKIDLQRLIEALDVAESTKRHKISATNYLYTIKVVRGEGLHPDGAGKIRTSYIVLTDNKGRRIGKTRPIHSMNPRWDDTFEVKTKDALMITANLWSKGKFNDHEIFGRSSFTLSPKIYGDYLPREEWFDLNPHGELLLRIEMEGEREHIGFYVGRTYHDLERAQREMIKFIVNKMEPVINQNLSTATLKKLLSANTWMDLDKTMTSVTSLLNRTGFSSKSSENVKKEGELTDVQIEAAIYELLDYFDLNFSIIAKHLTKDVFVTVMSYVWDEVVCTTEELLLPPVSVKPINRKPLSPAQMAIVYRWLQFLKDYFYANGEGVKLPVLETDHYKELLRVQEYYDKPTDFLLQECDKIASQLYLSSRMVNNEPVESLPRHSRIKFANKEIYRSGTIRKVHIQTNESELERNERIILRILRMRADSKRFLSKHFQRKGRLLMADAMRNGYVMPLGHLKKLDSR
Experiment: affinity purification with mass spectrometry; Ync13-3xFLAG from S. pombe cell extracts on anti-FLAG M2 affinity gel, HK extraction buffer with 300 mM NaCl and 0.5% NP-40, eluted with 3xFLAG peptide; bands except Ync13 analysed by mass spectrometry

binding: binds
B1: Rga7–6xHis (natural protein, S. pombe, UniProt O94466 1-695, looked up)
chain: MLSAPSSSTTPASPPTSPPNTTSSDDFAVLKEPKVEAILNSELGLAILNDRIKDYLLTCKELAGFFKKRSILEEESGKNLQKLAKSYLETFQSKHHSPQSFSASVITSMEIHEQLANHSLTLQKTLSAFSDQVIEFHKNAERKRKSIKEYAKKQENAYLEAVMQMDKSKSRFKGAETEYNRALDNKNTGDSQKKVGFFKPKSNAQLTKLEDEARLKAENAESDMHSKIENAQNVQKQLLCIHRPNYIKQFFSLQREIESSLIANYLRYTKLCESNTLLNGLTIRPQKPTPTNCGLQHALDNINANTDFVQYVLHASIKHEDNKNPTDASKTKIIQPPSSYGTGSSAGKTNPPVNPTIKVTAAIPSPLQNTNPAPSTFPNPSVASPAFPNSSTSNPSTAPASASPLASTLKPSTANDTNGSSSSSSSNPRTSSPLASNAENKPPVAQQSPPVLLPTLPPIQTTTIQTSREVAPPPSSINSNRAASPFRPTSVSPQPSSPTKSLLFGARLDAIILREHSNIPNIVMQCTSQVENFGLNLQGIYRVPSSSARVNMLRSQFENNPLLQLHTPEDYENDVHAVADLLKIFFRELREPLIPDNHQRDFIDAGNVEDESRRRDAVHRAINDLPDANYSTIRHLTIHLAKIKENSDVNKMSTNNLAIIWGPTIIKQATIPEISSFSRTIEILIDYCFTIFDYD
notes: Rga7, F-BAR protein and Rho2 GAP of S. pombe; full length, cloned into pET21a between the T7 tag and the 6His tag; also called Rga7–6His; not shown: His6, C-terminal, kept

binding: binds
B2: Rng10 (protein, UniProt Q9P6L9 1-1038)
chain: MEENTAQKQSNATGLQRHVSGRWISNVPSYEGNEWSSEESESEDKESNLTSSENIGKNPERELNSDGTDRIIEEEEEEDDIENEASSFSEQSENENYDFSYPGTFVYRKAASSSHETLATKVVSADESARLWAEKRRFLLQKLGKDPNSKPIDYKSSMASSSTRSSQSSQVSAIQPQSQDDNRVSDIRQMENRRELNVKRRSVSSPAEDLAIRPLSFSRYKKAEEIPESLPPIKGRDSFSSVRELNESNVFARAPNKNRFSFASVAETGSGSNFSRATSSRSSKTRSVVYEPNHRHTSFFGDTLSNLSSSLNDKKSPNDDHAVLDSELMEQTLPDSAEAVEIANNVKEDIVSTANDDANELDNTSEKATLETSSKPVTEQAIEQSEVVQEVEEGDTNMTTNTILKPTDEIINKGYAYSITSSHSNHSNEKFEQIPSPDEKLSRTDIDTHVKQLQTTKSTDSLSIPFVESPQQNPEEELSDSLSNDFGIDAEKEKDENLSKPEHHPSITSVNSPFLYSPSKQPSGELDEENLKLRLQDSDVDDEVATIRSLKQNNATNSEVETVTNDPSFSQQPGTHSRILRNFDAISSIDSIPDSFSDSAVDLPVDSSKYTLVGKTQSNSNLLQDNAEKHISKSNLEKVDVKGDTSPNSVEQGIEPQAASVVGSPRSSLVSNNSLEEGALLKNSESLESIYGYLSEEPDPALTKLNTEDPFWTKGSSDDEHTIASVEQDVYPYKTSLPTIVEATTSHTESSNSKAPAIEETTTTKVEVVAAHDAVSISSNSSTHKSHSEPLNRDELEVAALSRGSLPEPPKPNKQIVVQEEDQRDTLSLKTSTTGLSSHSKSAENNSTQQSTTSPSINSGASADAVSSGISKKADNSETNLNYFATLDAFVKSPLMSFDGLGELGSTDQRYNFFNQKIQEYSAYDSGLDNWIQFCLEKDGEAPKEAPPPPRSEPVSTTTKLAKRITQPSLSPARSTVTITHNIATEAKKKSKSAANDILHLFKKKAKSEQSNAKSSSSSIKESKKMKTLFGKKLGFKS
